Reference: PubChem BioAssay AID445 (National Center for Advancing Translational Sciences (NCATS), 2006)
The other results are listed elsewhere or left out. The main result of the screen is listed elsewhere. These columns were measured beside it and carry no call. Compounds called inactive in the main read-out are mostly missing here. Words in brackets tell the shape of the fitted curve; partial curves, single points and poor fits give uncertain potencies.

Experiment: IkB Signaling
Settings: ABC-DLBCL IkBa-CBG/CBR dual luciferase ratio (green luciferase fused to IkBa over red control in OCI-Ly3 lymphoma cells), 4 h; measured here: control luc red channel unless noted
How it was run: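 Luminescence ratio of IκBα-fused green versus native red beetle luciferase in OCI-Ly3 cells, 4 h post-doxycycline with compound; red signal alone, scaled from basal (0%) to zero light (-100%), flagged nonspecific or cytotoxic effects.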

Compound | AC50
NC(=O)c1c(NC(NC(=O)c2ccco2)(C(F)(F)F)C(F)(F)F)sc2c1CCCC2 | 15.8 µM [falling, partial curve]
CCCC(=O)N1c2ccccc2-c2nnc(SC)nc2OC1c1sccc1C (stereo not drawn) | 25.1 µM [falling, partial curve]
C[C@]12C=CC(=O)C=C1CC[C@@H]1[C@H]3C[C@@H](O)[C@](O)(C(=O)CO)[C@]3(C)C[C@H](O)[C@]12F | 25.1 nM [rising, full curve] [measured here: IkB-luc green channel]
COc1ccc(-n2c(Cc3cccn3C)nnc2SCC(=O)Nc2cc(C)cc(C)c2)cc1 | 15.8 µM [falling, partial curve]
CC(Oc1ccccc1)C(=O)Nc1c(C(=O)Nc2cccc(F)c2)oc2ccccc12 (stereo not drawn) | 12.6 µM [falling, partial curve]
Cc1ccc2oc(=O)c3cnn(CC(=O)N4CCN(c5cccc(Cl)c5)CC4)c3c2c1 | 3.16 µM [falling, single point]
Cc1cc(CN2CCN(CCC#N)CC2)c(O)c(C2(C)CCCCC2)c1 | 10 µM [falling, partial curve]
CCOC(=O)c1[nH]c(C)c(CCC(=O)N2CCN(c3cc(C)ccc3C)CC2)c1C | 25.1 µM [falling, single point]
CCOc1ccc(OCC)c(NC(=O)CN(C)S(=O)(=O)c2ccc3[nH]c(=O)oc3c2)c1 | 20 µM [falling, partial curve]
Cc1ccc(NC(=O)c2nc(S(=O)(=O)Cc3ccc(F)cc3)ncc2Cl)cc1C | 6.31 µM [falling, full curve]
Cc1cccc(C(=O)Nc2ccc3nc(SCC(=O)N4CCCC4)sc3c2)c1 | 25.1 µM [falling, partial curve]
O=C(CSc1nc(=O)[nH]c2c1CCC2)Nc1cc(C(F)(F)F)ccc1Cl | 39.8 µM [falling, single point]
COc1cc(CNC(=O)c2ccc(NC(=O)N3CCCCc4ccccc43)cc2)cc(OC)c1OC | 10 µM [falling, partial curve]
CCc1ccccc1NC(=O)C1CCCN(S(=O)(=O)c2ccc3[nH]c(=O)ccc3c2)C1 (stereo not drawn) | 15.8 µM [falling, single point]
CCOc1ccccc1C1CC(=O)Nc2cc3c(cc21)OCO3 (stereo not drawn) | 39.8 µM [falling, single point]
COc1ccc(OC)c(CCNC(=O)CCCn2c(=O)c3cccn3c3cccnc32)c1 | 3.16 µM [rising, partial curve]
COc1ccc(N2CCN(C(=O)CSc3nc(-c4ccccc4)no3)CC2)cc1 | 1.58 µM [falling, full curve]
CC1N(C)c2cc(NC(=O)c3ccco3)ccc2C1(C)C (stereo not drawn) | 39.8 µM [falling, single point]
COc1ccc(Cn2c(C3CC3)nc3ccc(NC(=O)c4ccco4)cc3c2=O)cc1 | 31.6 µM [falling, partial curve]
COc1ccc(-n2nc3c(N4CCC(C(=O)NC5CCCCC5)CC4)nnc(C)c3c2C)cc1 | 12.6 µM [falling, partial curve]
CCc1nc2c(cnn2-c2ccc(C)cc2)c(=O)n1Cc1ccccc1 | 6.31 µM [falling, partial curve]

Compound | AC50
CCOC(=O)N1CCN(C(=O)C2CCN(c3ncnc4c3sc3cccc(F)c34)CC2)CC1 | 15.8 µM [falling, partial curve]
Cc1ccc(-c2onc(C)c2C)cc1S(=O)(=O)NCc1ccc(N(C)C)cc1 | 20 µM [falling, partial curve]
CCc1ccc(NC(=O)Cn2c(=O)n(CCCCC(=O)NCc3ccccc3Cl)c(=O)c3ccccc32)cc1 | 39.8 µM [falling, single point]
COc1ccc(NC(=O)c2cc(C)nc3c2c(C)nn3-c2ccc(C)cc2)cc1OC | 1 µM [falling, full curve, poor fit]
CCOc1cc(OCC)cc(C(=O)Nc2cccc(-c3nc4ccccc4[nH]3)c2)c1 | 2 µM [falling, full curve]
C=CCC(CC=C)(CNC(=O)C(=O)Nc1ccc(C)cc1)c1ccccc1 | 1.26 µM [falling, full curve]
COc1ccccc1-c1nnc(C2CCN(C(=O)c3cccc(C)c3)CC2)o1 | 31.6 µM [falling, single point]
O=C(NCc1ccccc1)C(=O)NCC(c1ccco1)S(=O)(=O)c1ccc(Cl)cc1 (stereo not drawn) | 39.8 µM [falling, single point]
CCCN1C(=O)c2[nH]nc(-c3ccccc3)c2C1c1cccc(O)c1 (stereo not drawn) | 20 µM [falling, single point]
Cc1ccc(NC(=O)c2oc3ccccc3c2NC(=O)Cc2ccccc2)cc1 | 15.8 µM [falling, partial curve]
CC12CC(NC(=O)N1CCc1ccccc1)c1ccccc1O2 (stereo not drawn) | 20 µM [falling, partial curve]
COc1ccccc1NC(=O)CSC1=Nc2ccccc2C2=NC(Cc3ccccc3)C(=O)N12 (stereo not drawn) | 15.8 µM [falling, partial curve]
CCn1cc2nc(SCC(=O)Nc3ccc(C)cc3)n(Cc3ccc(C)cc3)c(=O)c2n1 | 25.1 µM [falling, single point]
c1ccc(-c2nnc(-c3ccccn3)nn2)nc1 | 10 µM [falling, partial curve]
Nn1c(CSc2nc3ccccc3o2)nnc1CSc1nc2ccccc2o1 | 10 µM [falling, partial curve]
Cc1[nH]c2ccc(Br)cc2c1CCNC(=O)c1cc2ccccc2oc1=O | 10 µM [falling, partial curve]
O=S(=O)(NCCS(=O)(=O)N1CCN(c2cccc(Cl)c2)CC1)c1ccc(F)cc1 | 3.98 µM [falling, partial curve]
CCOc1ccc(C2=NC(c3cccs3)=Nc3ccc(CC)cc3N2)cc1OCC | 0.2 µM [rising, full curve]
COc1ccc(-n2nc3cc(C)c(NC(=O)c4ccc(-c5ccc(Br)cc5)o4)cc3n2)cc1 | 10 µM [rising, partial curve]
CC(=O)N1CCCc2cc(S(=O)(=O)N3CCCC(C(=O)Nc4ccc(C)cc4C)C3)ccc21 (stereo not drawn) | 0.0501 µM [falling, full curve]
O=C(Nc1ccc2nsnc2c1)c1ccc2c(c1)OCO2 | 7.94 µM [falling, partial curve]

Compound | AC50
CCCCOc1ccc(NC(=O)CSCC(=O)OCC)cc1 | 15.8 µM [falling, partial curve]
Cc1cccc(NC(=O)CN2C(=O)C(c3ccccc3)=NC23CCC(C)CC3)c1 (stereo not drawn) | 12.6 µM [falling, partial curve]
Cc1cc(C)n(CCc2nc3c4ccccc4nc(N4CCN(c5cccc(C)c5C)CC4)n3n2)n1 | 39.8 µM [falling, single point]
CC1CCc2cc(F)ccc2N1C(=O)c1cc2nc(-c3ccco3)cc(C(F)(F)F)n2n1 (stereo not drawn) | 15.8 µM [falling, partial curve]
CCCCN(C)CCCNC(=O)CN1N=C(c2ccc(OC)cc2)CCC1=O | 39.8 µM [falling, single point]
Nc1nc2c(s1)CCc1c-2cnn1-c1ccccc1 | 39.8 µM [falling, single point]
Cc1csc(NC(=O)c2c(O)c3c(n(CC(C)C)c2=O)CCCC3)n1 | 3.16 µM [falling, full curve]
Cc1ccc(CCNC(=O)c2ccc3[nH]c(C)c(C)c3c2)cc1 | 25.1 µM [falling, single point]
O=C(NCCOc1ccccc1)c1ccc2c(c1)OCO2 | 12.6 µM [falling, partial curve]
COc1ccc(OC)c(NS(=O)(=O)c2ccc(-n3cccn3)cc2)c1 | 15.8 µM [falling, partial curve]
CCCCNC(=O)C(CC)Sc1nc2ccccc2c(=O)n1Cc1ccco1 (stereo not drawn) | 25.1 µM [falling, partial curve]
Cc1cccc(N(C)S(=O)(=O)c2nnc(NC(=O)c3cccs3)s2)c1 | 20 µM [falling, single point]
CCCCCOC(=O)NCCOC(=O)Nc1ccc(C(=O)OCC)cc1 | 31.6 µM [falling, partial curve]
CCOC(=O)c1cccc(NC(=O)Cn2c(=O)c3cccn3c3ccccc32)c1 | 15.8 µM [falling, partial curve]
CCCCNC(=O)CC1Nc2ccccc2NC1=O (stereo not drawn) | 3.16 µM [rising, partial curve]
CCn1nnnc1SCC(=O)Nc1nc(-c2cccs2)cs1 | 39.8 µM [falling, single point]
COc1ccccc1NC(=O)C1=C(C)Nc2nc(SCc3ccccc3)nn2C1c1cccc(O)c1 (stereo not drawn) | 12.6 µM [falling, partial curve]
C=CCc1cccc2cc(C(=O)N3CCN(C(=O)OCC)CC3)c(=O)oc12 | 7.94 µM [rising, single point] [measured here: IkB-luc green channel]
CCn1c(=O)cc(OCC(=O)N2CCN(c3ccc(C)cc3)C(C)C2)c2ccccc21 (stereo not drawn) | 12.6 µM [falling, partial curve]
COc1ccc(-c2noc(CCC(=O)N3CCN(Cc4ccccc4)CC3)n2)cc1 | 12.6 µM [falling, partial curve]
CCOC(=O)c1c(C)[nH]c(C(=O)CN2C(=O)NC(CC)(c3ccccc3)C2=O)c1C (stereo not drawn) | 25.1 µM [falling, partial curve]

Random excerpt: five compounds from above, in no set order.
Compound | AC50
COc1ccc(-c2noc(CCC(=O)N3CCN(Cc4ccccc4)CC3)n2)cc1 | 12.6 µM [falling, partial curve]
CCn1nnnc1SCC(=O)Nc1nc(-c2cccs2)cs1 | 39.8 µM [falling, single point]
CCCCNC(=O)CC1Nc2ccccc2NC1=O (stereo not drawn) | 3.16 µM [rising, partial curve]
O=C(NCCOc1ccccc1)c1ccc2c(c1)OCO2 | 12.6 µM [falling, partial curve]
Cc1cccc(NC(=O)CN2C(=O)C(c3ccccc3)=NC23CCC(C)CC3)c1 (stereo not drawn) | 12.6 µM [falling, partial curve]
